Test results as given in the supplement of paper PMC10331698.
± gives the standard deviation of the averaged measurements. Most entries show no effect beyond the scatter of the controls.

Assays:
Assay in all cases: level (log10 ratio to DMSO vehicle control); higher = higher biomarker level / cell amount than vehicle control
[1] = compound: CCN(CCO)S(=O)(=O)C(F)(F)C(F)(F)C(F)(F)C(F)(F)C(F)(F)C(F)(F)C(F)(F)C(F)(F)F [N-Ethyl-N-(2-hydroxyethyl)perfluorooctanesulfonamide]; conditions: in DMSO
Protocol: (§1)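 BioMAP Diversity Plus panel of 12 human primary cell co-culture systems (3C, 4H, LPS, SAg, BT, BF4T, BE3C, CASM3C, HDF3CGF, KF3CT, MyoF, Mphg). Compounds were added 1 h before stimulation and left for 24 h (MyoF 48 h; BT 72 h for soluble read-outs or 6 d for IgG). Biomarkers were read by ELISA, cytotoxicity by SRB, PBMC viability and proliferation by Alamar Blue. Each well value was divided by the mean of 8 DMSO control wells on the same plate and log10 transformed; duplicate blinded samples were tested at 4 concentrations.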

[2] = compound: O=C(O)C(F)(F)C(F)(F)C(F)(F)OC(F)(F)F [Perfluoro(4-methoxybutanoic) acid]; conditions: 2200 nM; in DMSO
Protocol: as §1

[3] = compound: O=C(O)C(F)(F)C(F)(F)C(F)(F)C(F)(F)C(F)(F)C(F)(F)C(F)(F)C(F)(F)C(F)(F)C(F)F [11-H-Perfluoroundecanoic acid]; conditions: 2200 nM; in DMSO
Protocol: as §1

[4] = compound: NC(=O)C(F)(F)C(F)(F)C(F)(F)F [Heptafluorobutyramide]; conditions: 2200 nM; in DMSO
Protocol: as §1

[5] = compound: CC(C)(C)C(=O)CC(=O)C(F)(F)C(F)(F)C(F)(F)F [(Heptafluorobutanoyl)pivaloylmethane]; conditions: 2200 nM; in DMSO
Protocol: as §1

[6] = compound: FC(F)(F)C(F)(F)C(F)(F)C(F)(F)C(F)(F)C(F)(F)CC1CO1 [3-(Perfluorohexyl)-1,2-epoxypropane]; conditions: 2200 nM; in DMSO
Protocol: as §1

[7] = compound: OCCC(F)(F)C(F)(F)C(F)(F)C(F)(F)C(F)(F)C(F)(F)F [6:2 Fluorotelomer alcohol]; conditions: 2200 nM; in DMSO
Protocol: as §1

[8] = compound: NCC(F)(F)C(F)(F)C(F)(F)C(F)(F)C(F)(F)C(F)(F)C(F)(F)F [1H,1H-Perfluorooctylamine]; conditions: 2200 nM; in DMSO
Protocol: as §1

[9] = compound: O=C(O)C(F)(F)C(F)(F)C(F)(F)C(F)(F)C(=O)O [Octafluoroadipic acid]; conditions: 2200 nM; in DMSO
Protocol: as §1

[10] = compound: O=S(=O)(O)CCC(F)(F)C(F)(F)C(F)(F)C(F)(F)C(F)(F)C(F)(F)C(F)(F)C(F)(F)F [8:2 Fluorotelomer sulfonic acid]; conditions: in DMSO
Protocol: as §1

[11] = compound: CCCCCCCCC(F)(F)C(F)(F)C(F)(F)C(F)(F)C(F)(F)C(F)(F)F [1-(Perfluorohexyl)octane]; conditions: in DMSO
Protocol: as §1

[12] = compound: Cc1ccc(S(=O)(=O)OCC(F)(F)C(F)(F)C(F)(F)C(F)(F)C(F)(F)C(F)F)cc1 [1H,1H,7H-Perfluoroheptyl 4-methylbenzenesulfonate]; conditions: 2200 nM; in DMSO
Protocol: as §1

[13] = compound: O=C(O)C(F)(F)C(F)(F)C(F)(F)C(F)(F)C(F)(F)C(F)(F)F [Perfluoroheptanoic acid]; conditions: in DMSO
Protocol: as §1

[14] = compound: O=C(O)C(F)(F)C(F)(F)C(F)(F)C(F)(F)F [Perfluoropentanoic acid]; conditions: in DMSO
Protocol: as §1

[15] = compound: CN(C(=O)C(F)(F)C(F)(F)C(F)(F)F)[Si](C)(C)C [N-Methyl-N-trimethylsilylheptafluorobutyramide]; conditions: 2200 nM; in DMSO
Protocol: as §1

[16] = compound: OCC(F)(F)C(F)(F)C(F)(F)F [1H,1H-Heptafluorobutanol]; conditions: 2200 nM; in DMSO
Protocol: as §1

BF4T:PAI-I
level (log10) ([1]; 2200 nM): 0.0075 ± 0.025 | level (log10) ([1]; 6700 nM): 0.014 ± 0.0014 | level (log10) ([1]; 20000 nM): -0.0105 ± 0.00071 | level (log10) [2]: 0.008 ± 0.0057 | level (log10) [3]: -0.0805 ± 0.021 | level (log10) [4]: 0.0095 ± 0.0078 | level (log10) [5]: 0.001 ± 0.016 | level (log10) [6]: 0.0115 ± 0.022 | level (log10) [7]: 0.017 ± 0.024 | level (log10) [8]: -0.003 ± 0.04 | level (log10) [9]: 0.0015 ± 0.022 | level (log10) ([10]; 2200 nM): 0.0085 ± 0.032 | level (log10) ([10]; 6700 nM): 0.005 ± 0.0099 | level (log10) ([10]; 20000 nM): 0.002 ± 0.011 | level (log10) ([10]; 60000 nM): 0.009 ± 0.0042 | level (log10) ([11]; 740 nM): 0.0115 ± 0.025 | level (log10) ([11]; 2200 nM): 0.0075 ± 0.032 | level (log10) [12]: 0.011 ± 0.034 | level (log10) ([13]; 2200 nM): 0.01 ± 0.0099 | level (log10) ([13]; 6700 nM): -0.0045 ± 0.019 | level (log10) ([13]; 20000 nM): 0.0005 ± 0.025 | level (log10) ([13]; 60000 nM): 0.0015 ± 0.028 | level (log10) ([14]; 2200 nM): 0.0085 ± 0.018 | level (log10) ([14]; 6700 nM): -0.003 ± 0.0014 | level (log10) ([14]; 20000 nM): -0.005 ± 0.0028 | level (log10) ([14]; 60000 nM): 0.007 ± 0.011 | level (log10) [15]: 0.0035 ± 0.03 | level (log10) [16]: 0.006 ± 0.0042

BF4T:SRB
level (log10) ([1]; 2200 nM): 0.009 ± 0.017 | level (log10) ([1]; 6700 nM): -0.016 ± 0.0071 | level (log10) ([1]; 20000 nM): -0.027 ± 0.018 | level (log10) [2]: -0.002 ± 0.0042 | level (log10) [3]: -0.011 ± 0.0042 | level (log10) [4]: -0.0055 ± 0.0035 | level (log10) [5]: 0.002 ± 0.02 | level (log10) [6]: 0.001 ± 0.0042 | level (log10) [7]: -0.0035 ± 0.015 | level (log10) [8]: 0.0035 ± 0.016 | level (log10) [9]: -0.0055 ± 0.012 | level (log10) ([10]; 2200 nM): 0.0205 ± 0.047 | level (log10) ([10]; 6700 nM): 0.0035 ± 0.015 | level (log10) ([10]; 20000 nM): -0.002 ± 0.013 | level (log10) ([10]; 60000 nM): -0.0005 ± 0.0078 | level (log10) ([11]; 740 nM): 0 | level (log10) ([11]; 2200 nM): -0.001 ± 0.0014 | level (log10) [12]: -0.002 ± 0.0014 | level (log10) ([13]; 2200 nM): -0.0015 ± 0.012 | level (log10) ([13]; 6700 nM): -0.0085 ± 0.00071 | level (log10) ([13]; 20000 nM): -0.0115 ± 0.00071 | level (log10) ([13]; 60000 nM): -0.0035 ± 0.018 | level (log10) ([14]; 2200 nM): 0.003 ± 0.0099 | level (log10) ([14]; 6700 nM): -0.011 ± 0.0085 | level (log10) ([14]; 20000 nM): -0.008 ± 0.0071 | level (log10) ([14]; 60000 nM): 0.001 ± 0.0099 | level (log10) [15]: -0.0045 ± 0.0035 | level (log10) [16]: 0.006 ± 0.028
